The values are deposited in ChEMBL (CHEMBL3988442, “University of Dundee, Small-Polar-MMV Screening Library” (2021)).

Each number is a percent effect as filed. How 0% and 100% were set is not recorded. Most values in the screen are low, and negative values occur. Compounds were drawn at random from those tested, without regard to their results.

Mtb growth Cornell: 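Whole-cell assay for inhibitors of Mycobacterium tuberculosis growth, labelled Cornell in the record; the read-out is not stated. The concentration is filed as 10 mM, unlikely as a test dose, so the dose is not known. The record gives no direction; compounds strong in two other growth screens of this library score well above the rest, so higher reads as stronger inhibition. Size under these conditions: about 53,000 compounds, about 900 of them at 50% or above in at least one test.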
Mtb heat-shock: 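Assay on Mycobacterium tuberculosis, filed only as a heat shock assay from Cornell; the read-out is not stated. The concentration is filed as 10 mM, unlikely as a test dose, so the dose is not known. Higher reads as stronger inhibition (inferred: compounds with an IC50 in retests scored well above the rest). About 69,000 compounds were tested under these conditions; 1.4% (about 930) showed 50% or more at least once.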

[H][C@@]12CCC(=O)N(CCc3ccc(C)o3)[C@]1([H])CCN(Cc1cnn(C)c1)C2 read Mtb growth Cornell: -3.885%; Mtb heat-shock: 12.39%.
Cn1ncc2c1C(COCC1CC1)CN(CC1CC1)C2 (stereo not drawn) read Mtb growth Cornell: 1.362%; Mtb heat-shock: 0.1407%.
Cc1cnc(C(=O)N2CCCn3c(nc(CN(C)C)cc3=O)C2)cn1.O=C(O)C(F)(F)F read Mtb growth Cornell: -0.009715%; Mtb heat-shock: -25.73%.
COc1cccc(Cc2nnc(SC3CCOC3=O)o2)c1 (stereo not drawn) read Mtb growth Cornell: 2.904%; Mtb heat-shock: 9.866%.
O=C(Cn1cccc2oc(=O)nc1-2)NCC1Cc2ccccc2O1 (stereo not drawn) read Mtb heat-shock: 4.309%.
CC(=O)Nc1cccc(CN2CCCC2C(=O)Nc2nccs2)c1 (stereo not drawn) read Mtb heat-shock: -15.37%.
COc1ccc2c(c1)CCN2Cc1nc2c(cnn2C)c(=O)[nH]1 read Mtb heat-shock: -7.188%.
Cn1c(=O)oc2ccc(NC(=O)N3CCSCC3)cc21 read Mtb growth Cornell: 1.03%; Mtb heat-shock: 12.26%.
Cc1nnc(CCNC(=O)Nc2ccc(S(C)(=O)=O)cc2)[nH]1 read Mtb heat-shock: -29.38%.
Cn1ncc2c1C(COCC1CC1)CN(S(=O)(=O)C1CC1)C2 (stereo not drawn) read Mtb growth Cornell: 6.426%; Mtb heat-shock: -2.855%.
CC(CC(=O)c1ccco1)NC(=O)c1ccon1 (stereo not drawn) read Mtb heat-shock: 0.8237%.
CCOC(=O)Cn1c(=O)nc(N)c2c(-c3ccc(OC)cc3)csc21 read Mtb growth Cornell: 7.944%; Mtb heat-shock: -9.539%.
Brc1ccc(C2(NCc3noc(C4CC4)n3)CCC2)cc1 read Mtb heat-shock: 17%.
COc1ccc(C(=O)C2CCCN(Cc3cnn(C)c3C)C2)c(OC)c1 (stereo not drawn) read Mtb growth Cornell: -24.41%; Mtb heat-shock: 3.218%.
Cc1ccc(N2CC(c3nccc(C)n3)C2)nn1 read Mtb growth Cornell: -26.34%; Mtb heat-shock: 0.6746%.
CC(=O)N1CCCC1c1csc(Nc2cnccn2)n1 (stereo not drawn) read Mtb heat-shock: -5.066%.
CCCC(=O)NC(C)(C)Cc1ccccc1OC read Mtb growth Cornell: 4.556%; Mtb heat-shock: 12.09%.
Cc1ccccc1C(O)CNC(=O)Cc1ccc(F)cc1 (stereo not drawn) read Mtb growth Cornell: 12.21%; Mtb heat-shock: -12.96%.
COCCC1(C(=O)O)CCCN(C(=O)c2cnc3c(c2)CCCC3)C1 (stereo not drawn) read Mtb heat-shock: -22.03%.
COCCOCCC(=O)Nc1c(-c2ccc(F)cc2)ncn1C read Mtb growth Cornell: -51.58%; Mtb heat-shock: -5.118%.
CC(C)[C@H](NS(C)(=O)=O)C(=O)NCc1cc(-c2ccccc2)nn1C read Mtb growth Cornell: -3.022%; Mtb heat-shock: 0.4059%.
Cc1cn2nc(N3CCCC3CC(C)(C)C)sc2n1 (stereo not drawn) read Mtb heat-shock: 23.08%.
O=C(O)C(F)(F)F.O=C(O)C(F)(F)F.[H][C@]12CCN(C(=O)NCc3cccnc3)C[C@@]1([H])OCCN(CCOC)C2 read Mtb growth Cornell: 16.46%; Mtb heat-shock: 8.129%.
COC(=O)CCCC(=O)N1CCC(CO)(CCc2ccccc2)CC1 read Mtb growth Cornell: 33.64%; Mtb heat-shock: 1.015%.
COc1nc2c(cc1C(=O)N(C)Cc1n[nH]c3c1CCCC3)CCC2 read Mtb growth Cornell: 20.02%; Mtb heat-shock: -1.074%.
[H][C@@]12CS(=O)(=O)C[C@]1([H])N(C(=O)c1cscn1)CCN2C(=O)C(C)C read Mtb growth Cornell: 11.61%; Mtb heat-shock: 73.31%.
CCc1nc(C)c(C(C)N(C)CCOC)s1 (stereo not drawn) read Mtb growth Cornell: -15.71%; Mtb heat-shock: 2.597%.
[H][C@@]12CN(S(=O)(=O)c3ccccc3)C[C@]1([H])OCC(=O)N2CCOC read Mtb heat-shock: -13.55%.
Cc1ccc(C2CN(C(=O)NCc3nnc4ccccn34)CCO2)o1 (stereo not drawn) read Mtb heat-shock: 2.255%.
Cc1nc(C2CCCN(C(=O)c3scnc3C)C2)no1 (stereo not drawn) read Mtb growth Cornell: -1.533%; Mtb heat-shock: 11.36%.
CCC(C)N1CCC2(CC1)CN(c1cncnc1)C(=O)CO2.O=C(O)C(F)(F)F (stereo not drawn) read Mtb growth Cornell: 9.283%; Mtb heat-shock: -21.63%.
Cc1oncc1C(=O)N1CCC2(CC1)CC(N1CCOCC1)C2.O=C(O)C(F)(F)F read Mtb growth Cornell: 14.16%; Mtb heat-shock: -11.29%.
CN(C)CC(=O)N1CCC2(CC1)COc1ccccc1S(=O)(=O)N(C)C2 read Mtb heat-shock: -11.94%.
CN(Cc1nc(C(C)(C)C)no1)C1CCS(=O)(=O)C1 (stereo not drawn) read Mtb heat-shock: -118.3%.
O=C(CSc1ccccc1F)NS(=O)(=O)c1ccc2c(c1)OCCO2 read Mtb heat-shock: -11.61%.
CN1C[C@H](O)[C@]2(CCN(C(=O)COc3ccccc3)C2)S1(=O)=O read Mtb growth Cornell: 15.39%; Mtb heat-shock: -8.091%.
CC1CN(Cc2ccccc2)CCCN1CCNS(C)(=O)=O (stereo not drawn) read Mtb heat-shock: 4.632%.
CC(c1ccc(C(=O)NCCc2nc(N)cc(O)n2)o1)N1CCCCC1 (stereo not drawn) read Mtb growth Cornell: -12.17%; Mtb heat-shock: 0.5938%.
CCC(C)C(=O)NCc1ccc(-n2cncn2)nc1 (stereo not drawn) read Mtb growth Cornell: -1.86%; Mtb heat-shock: 11.06%.
CNc1cc(N2CCC(O)(CNC(=O)c3ccc(C)nc3)C2)ncn1 (stereo not drawn) read Mtb growth Cornell: -3.746%; Mtb heat-shock: 2.188%.
O=c1oc(-c2cccs2)nn1CC1(O)CCCCC1 read Mtb growth Cornell: 23.66%; Mtb heat-shock: -8.183%.
[H][C@@]12CNC[C@]1([H])CN(C(=O)c1cc(F)cc(F)c1)C2 read Mtb heat-shock: -4.94%.
O=C(Cn1ccc2ccc(Cl)cc21)NCc1ccc(C(=O)O)cc1 read Mtb growth Cornell: 15.56%; Mtb heat-shock: 19.76%.
CCc1nnc(CN2CCc3ccc(S(N)(=O)=O)cc32)o1 read Mtb growth Cornell: 10.24%; Mtb heat-shock: 1.866%.

3 of the entries, repeated:

With COc1nc2c(cc1C(=O)N(C)Cc1n[nH]c3c1CCCC3)CCC2 the screen gave Mtb growth Cornell: 20.02%; Mtb heat-shock: -1.074%.
With Cc1cn2nc(N3CCCC3CC(C)(C)C)sc2n1 (stereo not drawn) the screen gave Mtb heat-shock: 23.08%.
With Cc1nc(C2CCCN(C(=O)c3scnc3C)C2)no1 (stereo not drawn) the screen gave Mtb growth Cornell: -1.533%; Mtb heat-shock: 11.36%.